Test results: article PMC4797308
These are yes or no findings as the source states them, for the method shown. Binding seen in cells or lysates may run through a third protein. Some entries that bind do so weakly or less than the wild type.

Sequences of proteins named here, by UniProt entry; tags and fusion partners are left off.
UniProt Q15365: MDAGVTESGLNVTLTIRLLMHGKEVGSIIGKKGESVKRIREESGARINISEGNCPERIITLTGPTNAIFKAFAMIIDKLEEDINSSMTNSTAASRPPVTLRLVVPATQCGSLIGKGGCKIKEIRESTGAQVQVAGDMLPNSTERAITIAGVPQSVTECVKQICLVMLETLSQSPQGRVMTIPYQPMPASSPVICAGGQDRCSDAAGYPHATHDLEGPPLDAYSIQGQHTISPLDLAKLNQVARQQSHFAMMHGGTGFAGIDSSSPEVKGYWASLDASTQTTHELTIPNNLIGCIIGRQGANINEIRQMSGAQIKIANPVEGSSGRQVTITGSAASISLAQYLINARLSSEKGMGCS
UniProt Q15366: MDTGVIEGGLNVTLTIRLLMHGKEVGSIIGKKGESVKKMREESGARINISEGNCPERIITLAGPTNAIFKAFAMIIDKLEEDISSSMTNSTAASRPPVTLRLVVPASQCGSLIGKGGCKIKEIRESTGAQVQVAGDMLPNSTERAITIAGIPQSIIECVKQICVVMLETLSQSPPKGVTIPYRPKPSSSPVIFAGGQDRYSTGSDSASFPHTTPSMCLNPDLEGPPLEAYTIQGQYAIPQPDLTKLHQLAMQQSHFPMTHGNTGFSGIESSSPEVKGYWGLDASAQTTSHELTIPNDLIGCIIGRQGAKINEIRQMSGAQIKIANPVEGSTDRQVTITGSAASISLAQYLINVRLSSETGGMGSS
UniProt Q13435: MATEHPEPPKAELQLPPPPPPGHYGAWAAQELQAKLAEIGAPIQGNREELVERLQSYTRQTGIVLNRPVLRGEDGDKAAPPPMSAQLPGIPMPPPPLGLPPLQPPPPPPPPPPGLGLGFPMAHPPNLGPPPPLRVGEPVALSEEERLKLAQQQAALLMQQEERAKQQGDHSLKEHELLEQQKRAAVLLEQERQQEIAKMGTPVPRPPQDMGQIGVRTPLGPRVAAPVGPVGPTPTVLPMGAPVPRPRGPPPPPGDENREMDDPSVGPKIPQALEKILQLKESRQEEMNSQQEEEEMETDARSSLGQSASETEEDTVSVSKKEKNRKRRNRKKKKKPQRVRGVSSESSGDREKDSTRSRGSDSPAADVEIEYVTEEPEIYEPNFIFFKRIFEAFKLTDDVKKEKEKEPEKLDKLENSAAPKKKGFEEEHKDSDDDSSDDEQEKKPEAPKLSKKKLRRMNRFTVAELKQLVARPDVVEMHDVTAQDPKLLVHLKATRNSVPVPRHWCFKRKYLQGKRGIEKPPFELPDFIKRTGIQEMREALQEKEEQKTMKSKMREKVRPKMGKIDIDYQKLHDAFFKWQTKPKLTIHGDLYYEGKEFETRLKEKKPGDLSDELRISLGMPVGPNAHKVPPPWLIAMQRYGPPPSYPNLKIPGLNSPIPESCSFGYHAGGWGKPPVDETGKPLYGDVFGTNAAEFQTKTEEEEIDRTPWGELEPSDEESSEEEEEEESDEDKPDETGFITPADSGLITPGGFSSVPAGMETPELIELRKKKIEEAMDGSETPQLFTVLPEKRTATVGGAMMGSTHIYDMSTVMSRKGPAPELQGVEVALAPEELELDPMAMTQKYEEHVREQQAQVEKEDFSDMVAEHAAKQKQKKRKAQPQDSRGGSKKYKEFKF

What was measured:
[1] = molecular target: αCP1 (human (endogenous in K562)) (UniProt Q15365); experiment: co-IP; K562 lysate in 50 mM HEPES pH 7.4, 150 mM NaCl, 1 mM EDTA, 10% glycerol, 1% Triton-X-100, 100 μg/ml RNase A, 4°C; IP with isotype-specific antisera to αCP1 or αCP2 on magnetic beads, preimmune serum as control; Western blot for SF3B2 and U2AF65
[2] = molecular target: αCP2 (human (endogenous in K562)) (UniProt Q15366); experiment: as above

binding [1]: binds | binding [2]: binds
Substance: subunit 2 of the splicing factor 3b protein complex, SF3B2–145 (from UniProt Q13435 1-895)
